Reference: PMC9454246, “The PqsE Active Site as a Target for Small Molecule Antimicrobial Agents against Pseudomonas aeruginosa” (Biochemistry, 2022)
Results are given in words; binding and its absence hold for the method and conditions named. Binding seen in cells or lysates may run through a third protein. Some binding calls cover weakened binding; strength is not graded here.

The chains behind the UniProt entries cited, without tags or fusion partners.
UniProt P20581: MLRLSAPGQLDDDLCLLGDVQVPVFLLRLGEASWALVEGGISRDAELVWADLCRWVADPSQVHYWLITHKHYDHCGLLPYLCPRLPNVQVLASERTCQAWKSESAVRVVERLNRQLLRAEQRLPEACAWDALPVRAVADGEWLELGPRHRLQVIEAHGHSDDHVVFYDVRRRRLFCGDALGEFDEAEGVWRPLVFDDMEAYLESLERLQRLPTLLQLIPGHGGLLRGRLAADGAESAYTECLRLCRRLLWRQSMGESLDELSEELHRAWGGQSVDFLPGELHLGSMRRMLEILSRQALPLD
UniProt P54292: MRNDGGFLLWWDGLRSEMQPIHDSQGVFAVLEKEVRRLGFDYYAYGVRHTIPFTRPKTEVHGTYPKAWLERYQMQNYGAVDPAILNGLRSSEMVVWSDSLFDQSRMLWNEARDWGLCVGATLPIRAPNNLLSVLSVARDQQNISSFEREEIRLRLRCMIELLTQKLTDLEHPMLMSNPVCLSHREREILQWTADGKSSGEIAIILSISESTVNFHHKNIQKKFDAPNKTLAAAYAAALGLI

Target: 6xHis-PqsE (wildtype) (P. aeruginosa) (UniProt P20581)
Assay: pull-down; 6xHis-PqsE proteins immobilized on Ni resin and exposed to lysate containing RhlR; complexes washed, eluted and analysed by SDS-PAGE; only the target purified

**Q.** How did the binding turn out when RhlR (from UniProt P54292 1-241) was run?
**A.** binds
